These results are taken from patent publication US20230357389A1.

Chains of the proteins cited; added tags and fusions are not shown. Lines headed by an entry give the natural chain unless they say otherwise; changes in a name come on top.
UniProt P07766: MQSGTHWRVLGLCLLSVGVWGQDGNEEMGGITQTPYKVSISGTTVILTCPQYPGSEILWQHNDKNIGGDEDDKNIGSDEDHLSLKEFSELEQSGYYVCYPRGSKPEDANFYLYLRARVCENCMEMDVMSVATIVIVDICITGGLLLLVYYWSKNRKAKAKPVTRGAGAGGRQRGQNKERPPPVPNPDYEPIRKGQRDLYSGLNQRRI
UniProt P04234: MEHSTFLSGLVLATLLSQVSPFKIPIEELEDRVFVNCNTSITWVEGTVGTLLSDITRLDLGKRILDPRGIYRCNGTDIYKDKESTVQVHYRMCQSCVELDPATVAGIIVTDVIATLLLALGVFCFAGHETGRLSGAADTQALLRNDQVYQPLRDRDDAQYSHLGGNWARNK
UniProt P09693: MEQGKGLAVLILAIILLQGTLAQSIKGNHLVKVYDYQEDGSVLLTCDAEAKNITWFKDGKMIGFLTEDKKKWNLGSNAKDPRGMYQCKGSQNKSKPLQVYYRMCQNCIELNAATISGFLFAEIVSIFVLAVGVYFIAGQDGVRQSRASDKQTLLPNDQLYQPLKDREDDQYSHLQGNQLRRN
UniProt P20963: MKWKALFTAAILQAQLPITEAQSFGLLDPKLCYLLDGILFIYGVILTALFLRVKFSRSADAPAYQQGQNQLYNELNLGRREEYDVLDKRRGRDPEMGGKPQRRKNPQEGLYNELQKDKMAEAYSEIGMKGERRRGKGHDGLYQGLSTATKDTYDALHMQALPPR

The target of the assay is human CD3 complex on T cells (human) (UniProt P07766+P04234+P09693+P20963). Kind of assay: flow cytometry on Jurkat cells.

No constants are given. Whether binding was seen depends on the method and setting. Some results given as binding are weak or reduced against the parent protein; the word gives no strength.

B1: anti-CD3 monoclonal antibody HzSP34.24 (antibody, human IgG1, lambda, L234A L235A, V domains shown)
VH: EVQLVESGGGLVQPGGSLKLSCAASGFTFNTYAMNWVRQASGKGLEWVGRIRSKYNNYATYYADSVKDRFTISRDDSKSTLYLQMNSLKTEDTAVYYCARHGNFGQSYVSWFAYWGQGTTVTVSS
VL: QAVVTQEPSLTVSPGGTVTLTCRSSTGAVTTSNYANWVQQKPGQAPRGLIGGTNKRAPGVPARFSGSLLGDKAALTLLGAQPEDEAEYYCALWYSNLWVFGQGTKLTVLG
As for B1, the binding result was “binds”.

B2: anti-CD3 monoclonal antibody HzSP34.97 (antibody, human IgG1, lambda, L234A L235A, V domains shown)
VH: EVQLVESGGGLVQPGGSLKLSCAASGFTFNTYAMNWVRQASGKGLEWVGRIRSKAGGYATYYADSVKDRFTISRDDSKSTLYLQMNSLKTEDTAVYYCARHGNFGQSYVSWFAYWGQGTTVTVSS
VL: QAVVTQEPSLTVSPGGTVTLTCRSSTGAVTTSNYANWVQQKPGQAPRGLIGGTNKRAPGVPARFSGSLLGDKAALTLLGAQPEDEAEYYCALWYSNLWVFGQGTKLTVLG
For B2, the binding result was “binds”.

B3: anti-CD3 monoclonal antibody HzSP34.87 (antibody, human IgG1, lambda, L234A L235A, V domains shown)
VH: EVQLVESGGGLVQPGGSLKLSCAASGFTFNTYAMNWVRQASGKGLEWVGRIRSKYNNYATYYADSVKDRFTISRDDSKSTLYLQMNSLKTEDTAVYYCARHYNFGQSYVSWFAYWGQGTTVTVSS
VL: QAVVTQEPSLTVSPGGTVTLTCRSSTGAVTTSNYANWVQQKPGQAPRGLIGGTNKRAPGVPARFSGSLLGDKAALTLLGAQPEDEAEYYCALWYSNLWVFGQGTKLTVLG
As to B3, the binding entry is recorded as “binds”.
